Patent US20120231497A1 (N.V. Organon, priority 2006, published 2012)
* marks the point of attachment. Boc = CC(C)(C)OC(=O)*

Assay: peptide synthesis
Details: late stage modification step

Boc-GFFL-OH
step yield: >95% yield
